The values that follow come from publication PMC10113987 (EJNMMI Research, 2023).

The nature of data set [1]: general procedure: Fmoc solid-phase peptide synthesis; 2-chlorotrityl chloride (2-CTC) resin; HBTU/DIPEA. The following applies: whole synthesis, 254 nm, scale of the general procedure 0.1 mmol.
The nature of data set [2]: general procedure: Fmoc solid-phase peptide synthesis; 2-CTC resin; HBTU/DIPEA. The following applies: whole synthesis, scale 0.1 mmol.

Consider “DOTA-Ahx-Axh-Glu-Trp-Pro-Arg-Pro-Gln-Ile-Pro-Pro-OH”, for which the “final HPLC purity” value in data set [1] came out at 99%. In data set [2], this substance returned an isolated yield of 19.2%.
